Results are given in words; binding and its absence hold for the method and conditions named. Binding seen in cells or lysates may run through a third protein. Some results given as binding are weak or reduced against the parent protein; the word gives no strength.
Columns and labels:
[1] = target: MOR-H297A mutant (in the MOR-GRK2 FRET assay) (rat) (UniProt P33535); test: FRET or BRET; single-cell FRET in HEK293T cells transfected with MOR-sYFP2, GRK2-mTur2, Gαi-WT, Gβ1-WT and Gγ2-WT; agonist applied (methadone, morphine; 10 µM DAMGO for normalisation); room temperature
[2] = target: µ opioid receptor fused to sYFP2 (MOR-sYFP2) (rat) (UniProt P33535); test: as above

By UniProt entry, the sequences of proteins in these tests, tags left out.
UniProt P25098: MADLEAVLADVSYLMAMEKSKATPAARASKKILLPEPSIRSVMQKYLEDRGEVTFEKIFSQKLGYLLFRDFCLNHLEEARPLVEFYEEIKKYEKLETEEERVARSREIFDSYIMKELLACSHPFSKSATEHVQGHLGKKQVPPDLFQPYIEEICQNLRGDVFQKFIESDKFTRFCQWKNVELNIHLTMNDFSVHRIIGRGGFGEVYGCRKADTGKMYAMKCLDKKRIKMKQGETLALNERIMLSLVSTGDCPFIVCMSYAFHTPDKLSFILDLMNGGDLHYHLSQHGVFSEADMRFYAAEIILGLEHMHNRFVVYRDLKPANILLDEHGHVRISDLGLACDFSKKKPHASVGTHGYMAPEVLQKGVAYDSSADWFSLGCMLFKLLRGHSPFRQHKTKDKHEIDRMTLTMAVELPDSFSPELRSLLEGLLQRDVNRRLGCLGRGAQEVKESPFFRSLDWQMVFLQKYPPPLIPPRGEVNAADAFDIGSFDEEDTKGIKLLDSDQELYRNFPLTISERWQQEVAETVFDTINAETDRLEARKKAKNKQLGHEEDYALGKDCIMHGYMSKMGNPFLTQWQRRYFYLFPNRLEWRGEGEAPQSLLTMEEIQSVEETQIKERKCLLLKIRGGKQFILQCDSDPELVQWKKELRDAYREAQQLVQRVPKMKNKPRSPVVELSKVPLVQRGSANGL

binding [1]: binds
binding [2]: binds
Substance: GRK2-mTur2 (from UniProt P25098 1-689) (enzyme)
